Results as given in the supplement of paper PMC12823440, “Inhibitors supercharge kinase turnover through native proteolytic circuits” (Nature, 2025).
Structures can show the parent of a compound that is named as a salt. The list shows a part of the results. The calls rarely recur for the same compound in another form.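 Kinases were expressed as nanoluciferase fusions in K562 cells and luminescence was read every 4 h between 2 and 18 h as percent of control, DMSO set to 100% and a positive control to 0%. A time point counts as decreased when the signal drops significantly (2 sigma). The hit call is the authors' own, does not follow from the count of time points alone, and its rule is not shown.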

Protein sequences, listed by entry. Tags and fused reporters are not part of them. Lines headed by an entry give the natural chain unless they say otherwise; changes in a name come on top.
UniProt P06239: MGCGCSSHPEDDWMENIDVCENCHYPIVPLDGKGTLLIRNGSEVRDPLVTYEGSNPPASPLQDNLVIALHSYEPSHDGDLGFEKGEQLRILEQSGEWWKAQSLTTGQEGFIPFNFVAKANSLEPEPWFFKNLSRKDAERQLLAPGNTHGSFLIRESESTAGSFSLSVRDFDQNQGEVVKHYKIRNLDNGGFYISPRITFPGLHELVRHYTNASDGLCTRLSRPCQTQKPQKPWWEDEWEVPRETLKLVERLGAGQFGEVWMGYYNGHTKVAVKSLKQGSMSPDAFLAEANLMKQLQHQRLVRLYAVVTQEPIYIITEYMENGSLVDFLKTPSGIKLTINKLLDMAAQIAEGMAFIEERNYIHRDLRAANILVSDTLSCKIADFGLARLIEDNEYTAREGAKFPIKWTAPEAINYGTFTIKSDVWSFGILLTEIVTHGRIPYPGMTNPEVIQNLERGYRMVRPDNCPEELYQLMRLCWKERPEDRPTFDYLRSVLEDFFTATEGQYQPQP

Each molecule was assayed against LCK (UniProt P06239) (assay: number of time points (of 5) at which kinase-Nluc abundance scored as decreased, DMSO-normalised (count); higher = more persistent destabilization). Conditions: K562; 2-18 h.

SMILES | number of time points
Cc1cnc(Cl)nc1-c1ccc(N(Cc2ccc(CNC(=O)C(F)F)cc2)C(=O)c2ccc(O)cc2O)cc1 (10 µM) | 0
COc1cc2c(cc1OC)[C@@H]1C(=O)c3ccc4c(c3O[C@@H]1CO2)C=CC(C)(C)O4 [Deguelin] (10 µM) | 0
CC(C)(CCCCCC(O)CCCCCC(C)(C)C(=O)O)C(=O)O [Bempedoic acid] (10 µM) | 0
COc1cc2nnc(C(N)=O)c(Nc3ccc(C)cc3F)c2cc1N1CCN(CCO)CC1 (2.5 µM) | 0
O=C(Nc1ccc(Cl)cc1)C1CN(C(=O)c2cccc(-c3ccco3)c2)CC(F)(F)C1 (stereo not drawn) (2.5 µM) | 0
CC(=O)O[C@@H]1[C@@H](OC(C)=O)[C@@H](O)[C@H](Oc2c(-c3ccc(O)cc3)oc3cc(O)cc(O)c3c2=O)O[C@H]1C (10 µM) | 0
COc1cc2nc(-c3cc(F)ccc3O)nc(N[C@@H]3CNC[C@H]3C(C)(C)O)c2cc1OC (2.5 µM) | 0
C=CC(=O)Nc1cccc(Oc2nc(Nc3ccc(N4CCN(C)CC4)cc3OC)ncc2Cl)c1 (10 µM) | 0
C=CC(=O)Nc1cc(Nc2nccc(-c3cn(C)c4ccccc34)n2)c(OCC(F)(F)F)nc1N(C)CCNC [AST5902  (trimesylate)] (2.5 µM) | 0
O=C1C=CC2=C3c4cc(O)c(O)cc4CC3(O)COC2=C1O (stereo not drawn) [Hematein] (10 µM) | 0
CCC(F)(F)c1cc(N2CCC(S(C)(=O)=O)CC2)nc2sc(C(N)=O)c(N)c12 (10 µM) | 0
Cn1cc(C2=C(c3ccc(Cl)cc3Cl)C(=O)NC2=O)c2ccccc21 (10 µM) | 0
CCOC(=O)c1c(N2CCc3ccc(OC)cc3C2)oc(C=C2C=Nc3ncccc32)c1O (10 µM) | 0
O=C(COc1ccc(Cl)cc1)NC1CCC(NC(=O)COc2ccc(Cl)cc2)CC1 (stereo not drawn) [ISRIB (trans-isomer)] (10 µM) | 0
COc1ccc(CCNCc2ccc(OCc3ccc(Cl)nc3)c(OC)c2)cc1OC [SBE13 (Hydrochloride)] (10 µM) | 0
Cc1cccc(CC(=O)N2CCc3c2ccc(-c2cn(C)c4ncnc(N)c24)c3F)n1 (10 µM) | 0
COc1cc(N2CCC(N3CCN(C)CC3)CC2)ccc1Nc1ncnc(Nc2ccccc2S(=O)(=O)C(C)C)n1 (10 µM) | 0
CC(C)(Oc1ccc(Cl)cc1)C(=O)Nc1ccc(OCc2ccc(C#N)cc2)cc1 [AMPK activator 4] (10 µM) | 0
Cc1cc(N2CCOCC2)ccc1Nc1nc(NC2CCCCC2)c2[nH]cnc2n1 (10 µM) | 0

Reformatted in CSV form: entries from further up.
SMILES,number of time points
CCOC(=O)c1c(N2CCc3ccc(OC)cc3C2)oc(C=C2C=Nc3ncccc32)c1O (10 µM),0
O=C(COc1ccc(Cl)cc1)NC1CCC(NC(=O)COc2ccc(Cl)cc2)CC1 (stereo not drawn) [ISRIB (trans-isomer)] (10 µM),0

Remaining list, next part

SMILES | number of time points
COC(=O)N1CCN(C2CCC(Nc3nc(Nc4cnn(C)c4)nc4ccc(CC#N)nc34)CC2)CC1 (stereo not drawn) (10 µM) | 0
CN(C)CCn1cc2cc(NC(=O)c3cccc(C(F)(F)F)n3)c(C(C)(C)O)cc2n1 (10 µM) | 0
CCOc1cc(N2CCC(O)CC2)ccc1Nc1ncc2c(n1)N(C1CCCC1)CCC(=O)N2C (2.5 µM) | 0
CCC[C@H](C)Oc1nc(N)c2[nH]c(=O)n(CCCCCN3CCCCC3)c2n1 (10 µM) | 0
Fc1ccc(-c2nc3n(c2-c2ccncc2)CCS3)cc1 (10 µM) | 0
CC(ONC(=O)c1cc(C(F)(F)F)cc(C(F)(F)F)c1)C(=O)Nc1ccc(Cl)cc1 (stereo not drawn) (2.5 µM) | 0
O=C(Nc1ccccc1C(=O)NC1CCCCNC1=O)c1cc2ccccc2s1 (stereo not drawn) (10 µM) | 0
N#CC(=C(/N)Sc1ccccc1N)/C(C#N)=C(\N)Sc1ccccc1N (10 µM) | 0
Nc1ccc(O)c(C(=O)O)c1 [5-Aminosalicylic Acid] (10 µM) | 0
CNCc1ccccc1Sc1cccc2ccccc12 [IFN alpha-IFNAR-IN-1 (hydrochloride)] (10 µM) | 0
CCCCNc1ncc2c(-c3ccc(F)cc3)nn(CC3CCC(N)CC3)c2n1 (stereo not drawn) (2.5 µM) | 0
Cc1ncsc1-c1ccc(CNC(=O)[C@@H]2C[C@@H](O)CN2C(=O)[C@@H](NC(=O)COCCOc2ccc(-c3cc(Nc4ccc(OC(F)(F)F)cc4)ncn3)cc2)C(C)(C)C)cc1 (2.5 µM) | 0
Cn1cnc2c(F)c(Nc3ccc(Br)cc3F)c(C(=O)NOCCO)cc21 [Binimetinib] (10 µM) | 0
O=C1NC(=O)C(Cc2c[nH]c3c(Cl)cccc23)N1 (stereo not drawn) [Necroptosis-IN-1] (10 µM) | 0
C=CC(=O)N1CCC(c2ccc(C(N)=O)c(-c3ccc(Oc4ccccc4)cc3)n2)CC1 [Orelabrutinib] (2.5 µM) | 0
CN1C(=O)N[C@@H](Cc2c[nH]c3c(Cl)cccc23)C1=O [Necrostatin 2 (S enantiomer)] (10 µM) | 0
N#Cc1cc(-c2ccnc(Nc3ccc(N4CCOCC4)cc3)n2)ccc1OC1CCOCC1 (10 µM) | 0
COc1cccc(-c2cc(=O)c3ccccc3o2)c1N (10 µM) | 0
Nc1ccc(Sc2nc3ccccc3s2)c(Cl)c1 [KRAS inhibitor-9] (10 µM) | 0
